Results from the supplement of paper PMC12823440, “Inhibitors supercharge kinase turnover through native proteolytic circuits” (Nature, 2025).
Where a name gives a salt, the structure may show the parent alone. The list shows a part of the results. Hit calls seldom repeat between salt and free forms of one compound.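 Kinases were expressed as nanoluciferase fusions in K562 cells and luminescence was read every 4 h between 2 and 18 h as percent of control, DMSO set to 100% and a positive control to 0%. A time point counts as decreased when the signal drops significantly (2 sigma). The hit call is the authors' own, does not follow from the count of time points alone, and its rule is not shown.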

Protein sequences, listed by entry. Tags and fused reporters are not part of them. Lines headed by an entry give the natural chain unless they say otherwise; changes in a name come on top.
UniProt P29317, whole entry: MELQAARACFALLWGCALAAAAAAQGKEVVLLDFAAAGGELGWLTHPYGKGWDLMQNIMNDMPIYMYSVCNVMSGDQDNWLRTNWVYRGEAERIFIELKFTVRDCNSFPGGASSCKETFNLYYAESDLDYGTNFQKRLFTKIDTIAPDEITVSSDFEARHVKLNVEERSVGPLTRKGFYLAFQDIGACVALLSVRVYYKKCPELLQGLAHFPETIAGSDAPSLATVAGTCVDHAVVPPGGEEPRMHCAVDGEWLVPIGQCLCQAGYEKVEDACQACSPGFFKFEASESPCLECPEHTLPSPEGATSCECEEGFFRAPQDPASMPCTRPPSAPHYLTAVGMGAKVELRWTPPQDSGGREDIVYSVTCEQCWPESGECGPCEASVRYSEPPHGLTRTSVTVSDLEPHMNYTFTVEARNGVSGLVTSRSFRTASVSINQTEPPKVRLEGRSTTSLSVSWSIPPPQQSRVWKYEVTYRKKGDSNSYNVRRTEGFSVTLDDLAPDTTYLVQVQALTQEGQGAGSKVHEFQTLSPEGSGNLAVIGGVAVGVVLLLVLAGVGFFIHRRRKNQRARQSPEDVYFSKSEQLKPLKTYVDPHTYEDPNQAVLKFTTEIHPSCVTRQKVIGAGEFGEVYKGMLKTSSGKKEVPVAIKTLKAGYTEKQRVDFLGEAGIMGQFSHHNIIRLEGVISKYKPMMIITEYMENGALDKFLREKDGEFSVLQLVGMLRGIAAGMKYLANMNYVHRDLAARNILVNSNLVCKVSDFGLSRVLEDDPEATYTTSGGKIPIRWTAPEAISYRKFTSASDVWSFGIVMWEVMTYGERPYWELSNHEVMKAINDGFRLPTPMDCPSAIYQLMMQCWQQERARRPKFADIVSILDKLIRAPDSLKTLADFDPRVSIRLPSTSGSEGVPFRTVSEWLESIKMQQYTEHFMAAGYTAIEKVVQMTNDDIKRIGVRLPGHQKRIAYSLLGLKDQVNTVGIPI
UniProt P21860, whole entry: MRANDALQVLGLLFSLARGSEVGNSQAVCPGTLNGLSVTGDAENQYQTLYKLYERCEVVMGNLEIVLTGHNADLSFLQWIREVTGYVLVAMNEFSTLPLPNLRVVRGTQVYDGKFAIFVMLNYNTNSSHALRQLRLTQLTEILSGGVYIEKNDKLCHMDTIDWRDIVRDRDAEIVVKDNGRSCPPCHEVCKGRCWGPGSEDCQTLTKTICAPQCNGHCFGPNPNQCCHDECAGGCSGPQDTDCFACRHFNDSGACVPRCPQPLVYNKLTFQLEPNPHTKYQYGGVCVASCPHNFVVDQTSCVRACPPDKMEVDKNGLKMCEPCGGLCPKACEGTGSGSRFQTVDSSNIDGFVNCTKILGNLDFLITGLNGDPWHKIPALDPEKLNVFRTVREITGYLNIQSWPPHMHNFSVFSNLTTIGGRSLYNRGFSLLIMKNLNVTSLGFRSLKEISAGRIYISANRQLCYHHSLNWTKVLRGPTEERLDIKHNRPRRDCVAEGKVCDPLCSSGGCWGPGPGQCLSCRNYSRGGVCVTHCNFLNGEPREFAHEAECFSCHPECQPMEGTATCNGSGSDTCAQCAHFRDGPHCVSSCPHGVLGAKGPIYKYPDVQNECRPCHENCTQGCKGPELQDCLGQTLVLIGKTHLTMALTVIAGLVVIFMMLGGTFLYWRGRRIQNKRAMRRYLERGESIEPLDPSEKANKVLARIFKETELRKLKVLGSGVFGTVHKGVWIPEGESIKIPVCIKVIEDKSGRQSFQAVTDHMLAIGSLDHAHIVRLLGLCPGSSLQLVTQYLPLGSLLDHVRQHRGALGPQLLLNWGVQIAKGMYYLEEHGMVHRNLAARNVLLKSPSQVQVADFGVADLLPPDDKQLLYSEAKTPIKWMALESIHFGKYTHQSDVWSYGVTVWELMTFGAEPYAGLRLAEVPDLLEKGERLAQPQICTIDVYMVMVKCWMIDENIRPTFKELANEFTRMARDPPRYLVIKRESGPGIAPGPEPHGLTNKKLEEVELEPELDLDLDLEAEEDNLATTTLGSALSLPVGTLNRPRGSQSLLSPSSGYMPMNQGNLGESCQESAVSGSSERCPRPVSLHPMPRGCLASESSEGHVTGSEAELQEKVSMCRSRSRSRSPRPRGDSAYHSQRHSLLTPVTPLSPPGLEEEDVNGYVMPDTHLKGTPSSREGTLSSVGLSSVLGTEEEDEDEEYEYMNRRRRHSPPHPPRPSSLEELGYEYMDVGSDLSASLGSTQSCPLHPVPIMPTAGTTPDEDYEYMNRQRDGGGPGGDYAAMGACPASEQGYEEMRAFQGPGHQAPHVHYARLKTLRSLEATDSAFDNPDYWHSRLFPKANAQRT
UniProt Q15303, whole entry R711C: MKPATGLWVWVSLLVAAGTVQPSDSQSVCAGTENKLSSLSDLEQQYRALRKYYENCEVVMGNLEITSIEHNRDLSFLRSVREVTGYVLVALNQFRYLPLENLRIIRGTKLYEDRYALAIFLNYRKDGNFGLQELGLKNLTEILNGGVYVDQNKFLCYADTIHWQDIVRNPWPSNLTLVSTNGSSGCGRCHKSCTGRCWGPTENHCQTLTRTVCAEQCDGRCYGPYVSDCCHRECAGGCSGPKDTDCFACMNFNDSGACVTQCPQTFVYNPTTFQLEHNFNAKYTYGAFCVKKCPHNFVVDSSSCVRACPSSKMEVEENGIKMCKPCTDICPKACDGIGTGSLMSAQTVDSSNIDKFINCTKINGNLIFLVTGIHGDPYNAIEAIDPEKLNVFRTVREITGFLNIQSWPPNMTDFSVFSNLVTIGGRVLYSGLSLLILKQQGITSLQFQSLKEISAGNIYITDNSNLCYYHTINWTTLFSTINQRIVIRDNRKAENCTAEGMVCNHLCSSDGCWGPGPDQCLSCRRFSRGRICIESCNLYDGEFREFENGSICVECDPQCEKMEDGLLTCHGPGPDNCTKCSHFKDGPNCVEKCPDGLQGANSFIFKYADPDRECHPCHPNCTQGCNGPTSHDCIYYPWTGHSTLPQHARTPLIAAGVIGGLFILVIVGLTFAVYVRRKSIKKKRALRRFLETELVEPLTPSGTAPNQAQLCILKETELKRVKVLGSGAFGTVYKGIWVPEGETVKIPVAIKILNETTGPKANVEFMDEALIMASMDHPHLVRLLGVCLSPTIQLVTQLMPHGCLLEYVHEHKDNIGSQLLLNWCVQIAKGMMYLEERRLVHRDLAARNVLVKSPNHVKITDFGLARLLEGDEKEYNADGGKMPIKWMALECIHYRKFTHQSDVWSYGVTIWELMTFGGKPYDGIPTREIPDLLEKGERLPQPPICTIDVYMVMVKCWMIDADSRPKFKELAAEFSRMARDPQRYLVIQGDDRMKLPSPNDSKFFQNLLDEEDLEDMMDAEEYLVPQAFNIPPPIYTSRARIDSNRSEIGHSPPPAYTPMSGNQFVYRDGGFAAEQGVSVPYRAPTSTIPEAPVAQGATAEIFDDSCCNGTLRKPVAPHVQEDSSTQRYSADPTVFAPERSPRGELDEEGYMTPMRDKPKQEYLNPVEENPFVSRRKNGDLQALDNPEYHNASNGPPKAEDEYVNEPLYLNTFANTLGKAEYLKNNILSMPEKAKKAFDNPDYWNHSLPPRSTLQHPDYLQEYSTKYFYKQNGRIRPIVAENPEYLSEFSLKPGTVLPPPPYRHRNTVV
UniProt O75460: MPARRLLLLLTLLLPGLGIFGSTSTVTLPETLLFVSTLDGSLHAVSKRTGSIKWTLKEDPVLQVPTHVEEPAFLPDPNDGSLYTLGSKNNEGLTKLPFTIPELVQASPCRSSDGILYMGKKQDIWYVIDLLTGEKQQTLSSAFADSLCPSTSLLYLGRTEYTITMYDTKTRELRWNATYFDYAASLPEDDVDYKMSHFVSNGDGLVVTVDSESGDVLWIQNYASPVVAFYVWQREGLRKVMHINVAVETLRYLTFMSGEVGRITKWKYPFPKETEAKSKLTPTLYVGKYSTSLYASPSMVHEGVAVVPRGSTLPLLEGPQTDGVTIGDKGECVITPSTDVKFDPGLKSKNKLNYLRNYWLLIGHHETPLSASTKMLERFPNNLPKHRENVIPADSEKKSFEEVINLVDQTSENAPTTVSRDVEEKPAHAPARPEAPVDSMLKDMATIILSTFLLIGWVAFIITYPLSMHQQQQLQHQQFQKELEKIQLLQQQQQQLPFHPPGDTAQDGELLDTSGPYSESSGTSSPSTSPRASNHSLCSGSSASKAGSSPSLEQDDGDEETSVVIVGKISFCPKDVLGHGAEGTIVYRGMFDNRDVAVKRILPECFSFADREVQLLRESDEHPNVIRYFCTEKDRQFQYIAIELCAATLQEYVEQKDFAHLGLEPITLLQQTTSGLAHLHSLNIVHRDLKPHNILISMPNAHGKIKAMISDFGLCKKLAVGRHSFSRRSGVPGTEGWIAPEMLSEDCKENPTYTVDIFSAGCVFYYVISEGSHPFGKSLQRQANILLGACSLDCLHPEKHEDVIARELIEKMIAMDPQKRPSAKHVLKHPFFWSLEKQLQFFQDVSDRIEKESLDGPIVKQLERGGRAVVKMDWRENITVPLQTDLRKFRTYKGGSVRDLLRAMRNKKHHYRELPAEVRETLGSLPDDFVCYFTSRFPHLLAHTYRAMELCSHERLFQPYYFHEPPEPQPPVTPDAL
UniProt P21802, whole entry, looked up: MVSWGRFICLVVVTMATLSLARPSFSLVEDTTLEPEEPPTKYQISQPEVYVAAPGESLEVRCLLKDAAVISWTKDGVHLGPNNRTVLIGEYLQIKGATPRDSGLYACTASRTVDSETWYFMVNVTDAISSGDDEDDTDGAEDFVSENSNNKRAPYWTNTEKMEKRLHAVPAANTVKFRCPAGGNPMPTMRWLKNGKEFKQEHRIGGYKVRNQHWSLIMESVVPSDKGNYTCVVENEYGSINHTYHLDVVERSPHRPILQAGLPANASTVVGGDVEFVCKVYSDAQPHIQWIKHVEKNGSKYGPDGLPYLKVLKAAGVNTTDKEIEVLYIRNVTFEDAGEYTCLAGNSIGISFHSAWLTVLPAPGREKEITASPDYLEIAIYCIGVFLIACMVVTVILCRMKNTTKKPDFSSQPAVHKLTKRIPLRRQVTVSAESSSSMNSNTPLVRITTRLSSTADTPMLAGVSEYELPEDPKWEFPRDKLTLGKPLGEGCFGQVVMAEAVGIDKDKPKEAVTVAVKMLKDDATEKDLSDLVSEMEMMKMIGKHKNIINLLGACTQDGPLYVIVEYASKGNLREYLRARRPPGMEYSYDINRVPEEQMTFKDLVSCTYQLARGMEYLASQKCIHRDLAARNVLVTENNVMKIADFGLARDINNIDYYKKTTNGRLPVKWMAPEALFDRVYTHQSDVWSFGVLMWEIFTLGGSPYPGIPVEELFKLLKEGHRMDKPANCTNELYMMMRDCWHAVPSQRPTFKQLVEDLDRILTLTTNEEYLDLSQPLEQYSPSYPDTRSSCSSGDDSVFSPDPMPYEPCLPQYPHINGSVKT
UniProt P22607, whole entry, looked up: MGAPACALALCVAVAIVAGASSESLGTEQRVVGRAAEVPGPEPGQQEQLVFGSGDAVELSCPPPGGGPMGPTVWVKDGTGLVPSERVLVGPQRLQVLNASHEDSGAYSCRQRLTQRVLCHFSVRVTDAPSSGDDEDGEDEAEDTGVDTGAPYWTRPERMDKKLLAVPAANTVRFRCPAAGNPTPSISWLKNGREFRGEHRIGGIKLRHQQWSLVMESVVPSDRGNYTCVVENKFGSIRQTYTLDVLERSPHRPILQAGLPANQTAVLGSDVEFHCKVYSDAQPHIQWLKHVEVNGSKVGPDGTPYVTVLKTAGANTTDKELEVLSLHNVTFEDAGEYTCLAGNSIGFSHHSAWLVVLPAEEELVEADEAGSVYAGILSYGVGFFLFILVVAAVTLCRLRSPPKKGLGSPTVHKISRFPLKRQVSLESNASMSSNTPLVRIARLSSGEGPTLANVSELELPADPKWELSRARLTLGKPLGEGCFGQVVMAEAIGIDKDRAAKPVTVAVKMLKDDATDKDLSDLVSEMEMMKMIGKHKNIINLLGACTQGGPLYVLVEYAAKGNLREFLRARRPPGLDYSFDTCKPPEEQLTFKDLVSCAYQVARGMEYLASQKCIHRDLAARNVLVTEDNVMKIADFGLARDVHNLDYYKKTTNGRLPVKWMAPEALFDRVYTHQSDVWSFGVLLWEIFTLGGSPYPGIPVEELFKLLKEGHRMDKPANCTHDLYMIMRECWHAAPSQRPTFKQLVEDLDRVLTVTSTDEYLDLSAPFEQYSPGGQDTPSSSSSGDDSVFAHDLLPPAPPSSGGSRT

What was measured:
Test in all cases: number of time points (of 5) at which kinase-Nluc abundance scored as decreased, DMSO-normalised (count); higher = more persistent destabilization
Details in all cases: K562; 2-18 h
EGFR_L861Q = EGFR_L861Q (UniProt P00533)
EGFR_T790M = EGFR_T790M (UniProt P00533)
EPHA2 = EPHA2 (UniProt P29317)
ERBB3 = ERBB3 (UniProt P21860)
[1] = molecular target: ERBB4_R711C (clone: ERBB4_mut) (UniProt Q15303)
ERN1 = ERN1 (UniProt O75460)
FGFR1 = FGFR1 (UniProt P11362)
FGFR2 = FGFR2 (UniProt P21802)
FGFR3 = FGFR3 (UniProt P22607)
FGR = FGR (UniProt P09769)

Measured: number of time points

CC[C@@H](Oc1nc(Oc2cc(C)cc(-c3cccc(CN)c3)c2)c(F)cc1F)C(=O)O (10 µM)
0: all assays above

C[C@@H](c1ccc(F)cc1)n1nnc2cnc3ccc(-c4ccc5ocnc5c4)cc3c21 (10 µM)
0: all assays above

C=CC(=O)Nc1cccc(Nc2nc(Nc3ccc(NC4CN(CCF)C4)cc3OC)ncc2C(F)(F)F)c1 (2.5 µM)
0: all assays above

C=CC(=O)Nc1cccc(Nc2nc(Nc3ccc(N4CCN(C(C)=O)CC4)cc3OC)ncc2C(F)(F)F)c1 [Rociletinib hydrobromide] (10 µM)
4: [1]
0: all other assays above

Nc1ncnc2c1c(-c1ccc(Oc3ccccc3)cc1)nn2C1CCCC1 (2.5 µM)
1: FGFR2
0: all other assays above

O=C(NCCN1CCCC1)c1cc(-c2ccc(CN3CCOCC3)cc2)nc2ccc(F)cc12 (10 µM)
0: all assays above

CCN1CCN(Cc2ccc(Nc3ncc(F)c(-c4cc(F)c5nc(C)n(C(C)C)c5c4)n3)nc2)CC1 [Abemaciclib] (2 µM)
1: EPHA2 | [1]
0: all other assays above

CCCCCCCCCCCCC/C=C/[C@@H](O)[C@@H](N)CO [D-erythro-Sphingosine] (2.5 µM)
0: all assays above

N#CCC1CCN(c2nc(Nc3ccc(N4CCC(O)CC4)cc3)c3c(=O)[nH]ncc3n2)CC1 [Gusacitinib] (10 µM)
4: [1]
0: all other assays above

C=C(CC[C@@H](C(=O)O)[C@H]1[C@H](O)C[C@@]2(C)C3=C(CC[C@]12C)[C@@]1(C)CC[C@H](OC(C)=O)C(C)(C)[C@@H]1CC3)C(C)C [Pachymic acid] (10 µM)
0: all assays above

Cn1nccc1Nc1nccc(-c2ccn([C@H](CO)c3ccc(Cl)c(F)c3)c(=O)c2)n1 [Ravoxertinib] (10 µM)
0: all assays above

C[C@]1(O)CCN(c2nc(N3C[C@H](O)[C@@H](O)C3)cc(C(F)(F)F)c2C#N)C1 (10 µM)
0: all assays above

Nc1nc(F)nc2c1ncn2[C@@H]1O[C@H](CO)[C@@H](O)[C@@H]1O [Fludarabine] (10 µM)
0: all assays above

Cc1ccc(CNc2ncnc3ccc(-c4ccc(CO)o4)cc23)o1 (10 µM)
0: all assays above

CCNc1nc(Nc2cc(F)c(C(=O)N3CCOCC3)cc2OC)ncc1C(F)(F)F [GNE-7915 (tosylate)] (10 µM)
0: all assays above

CNC(=O)c1cc(COc2nnc(Nc3ccc(Cl)cc3)c3ccoc23)ccn1 [Telatinib] (10 µM)
0: all assays above

CC(C)(C)c1cc(O)ccc1O (10 µM)
3: FGFR1
0: all other assays above

COc1ccccc1-c1cc(Nc2cccc(CS(N)(=O)=O)c2)ncn1 (10 µM)
2: ERBB3 | FGFR2
1: EGFR_L861Q
3: [1]
0: all other assays above

CCc1c(C(=O)NNC(=O)C(O)c2cc(F)cc(F)c2)ccc(O)c1C (centres undefined) (10 µM)
0: all assays above

CC1=C(C(=O)O)N2C(=O)[C@@H](NC(=O)[C@H](N)C3=CCC=CC3)[C@H]2SC1 [Cephradine] (10 µM)
0: all assays above

c1cncc(CN2CCC(n3ncc4c(N5CCOCC5)nc(-c5ccc6[nH]ccc6c5)nc43)CC2)c1 (10 µM)
4: ERBB3 | FGFR2
2: EGFR_L861Q | ERN1
5: FGFR1
0: all other assays above

Cc1cc(O)c2c(c1)C(=O)c1cc(O)cc(O)c1C2=O [Emodin] (10 µM)
0: all assays above

CN(C)C(=O)Cn1cc(-c2ccc(-c3cncc4ccccc34)cc2)cn1 (10 µM)
0: all assays above

O=C([O-])c1cc2ccccc2c(Cc2c(O)c(C(=O)[O-])cc3ccccc23)c1O.[Na+].[Na+] [Pamoic acid (disodium)] (10 µM)
0: all assays above

CCOC(=O)N1CCN(C(=O)[C@H](Cc2cccc(C(=N)N)c2)NS(=O)(=O)c2c(C(C)C)cc(C(C)C)cc2C(C)C)CC1 (10 µM)
0: all assays above

O=C1N[C@@H](Cc2c[nH]c3ccccc23)C(=O)N2CCC[C@@H]12 [Brevianamide F] (10 µM)
0: all assays above

Cc1cc(Nc2ncnc3ccc(NC4=NC(C)(C)CO4)cc23)ccc1Oc1ccn2ncnc2c1 [Tucatinib (hemiethanolate)] (2.5 µM)
0: all assays above

CS(=O)(=O)Nc1cc(-c2ccc3ncnc(Nc4ccc(F)c(Cl)c4)c3c2)cnc1Cl (2.5 µM)
3: [1]
0: all other assays above

CCc1cc2c(cc1N1CCC(N3CCOCC3)CC1)C(C)(C)c1[nH]c3cc(C#N)ccc3c1C2=O [Alectinib (Hydrochloride)] (2 µM)
0: all assays above

FC(F)(c1ccc2ncccc2c1)c1nnc2ccc(-c3ccncc3)nn12 (10 µM)
0: all assays above

Cn1cc(-c2ccc3nnc(Sc4ccc5ncccc5c4)n3n2)cn1 (10 µM)
0: all assays above

Oc1cc2c(cc1O)C(Cc1cccc3ccccc13)NCC2 (centres undefined) (10 µM)
0: all assays above

COc1ncc(Cl)cc1S(=O)(=O)Nc1ccc(F)c(C#Cc2cnc(N)nc2)c1F (2.5 µM)
0: all assays above

Cc1c(-c2c(F)cc(C(N)=O)c3[nH]c4c(c23)CC[C@H](C(C)(C)O)C4)cccc1-n1c(=O)c2cccc(F)c2n(C)c1=O (2.5 µM)
0: all assays above

O=C1NC(=O)/C(=C\c2cccc(C(F)(F)F)c2)S1 (2.5 µM)
0: all assays above

C[C@@H]1CC[C@@H](Nc2nc(NC(C)(C)C)ncc2C(N)=O)C[C@H]1O (10 µM)
0: all assays above

CC#CC(=O)N1CC[C@@H](n2c(=O)n(-c3ccc(Oc4ccccc4)cc3)c3c(N)ncnc32)C1 [Tirabrutinib (hydrochloride)] (10 µM)
0: all assays above

O=C(Nc1cn[nH]c1-c1ccccn1)c1nn(C2CCNCC2)cc1Cl (10 µM)
2: EGFR_L861Q
1: [1]
0: all other assays above

Cc1ccccc1-n1c([C@H](C)Nc2nc(N)nc3nc[nH]c23)nc2cccc(C)c2c1=O [CAL-130 (Hydrochloride)] (10 µM)
0: all assays above

O=C1Nc2ccc(C(=O)c3ccco3)cc2C1=Cc1cc(Cl)c(O)c(Cl)c1 (2.5 µM)
0: all assays above

COc1ccc(OC)c(C2C(C#N)=C(N)Oc3n[nH]c(-c4ccc5ccccc5c4)c32)c1 (centres undefined) (10 µM)
0: all assays above

CNc1nc(Nc2ccc(C(=O)N3CCOCC3)cc2OC)nc2[nH]cc(Cl)c12 (2.5 µM)
0: all assays above

Cn1cnc2c(F)c(Nc3ccc(Br)cc3Cl)c(C(=O)NOCCO)cc21 [Selumetinib (sulfate)] (10 µM)
0: all assays above

O=C(Nc1ccc(CN2CCOCC2)cc1)c1ccc(-c2cccc(Cl)c2)o1 (10 µM)
0: all assays above

C[C@H](c1ccnc(Nc2nc3ccc(-c4cc(N(C)C)ncn4)cc3[nH]2)c1)N1CCN(C(=O)CC(F)(F)F)CC1 (2.5 µM)
0: all assays above

Cc1ccc2nc(NCCN)c3ncc(C)n3c2c1 (2.5 µM)
not listed: EGFR_L861Q
0: all other assays above
